The experiment relates to HEK293A TEAD-LUC reporter. In words: TEAD-luciferase reporter activity (YAP activation), robust Z score vs plate; higher = stronger YAP/TEAD activation. Conditions: 24 h. (Reporter assays use an easily measured gene product as a stand-in for the process of interest.)

Counter-ions that a name gives are not always drawn. The list shows a part of the results. Repeats in this data set agree poorly, so a single value says little.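 The human kidney-derived cells carry a stably integrated construct of eight TEAD-binding elements driving luciferase, read by luminescence in a drug-repurposing library screen. A compound counts as a hit when its signal is more than five robust Z scores above the plate mean.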

With `CO[C@@H]1[C@@H](O)[C@H](C)O[C@@H](O[C@H]2CC[C@@]3(C)[C@H](CC[C@@H]4[C@@H]3CC[C@]3(C)[C@@H](C5=CC(=O)OC5)CC[C@]43O)C2)[C@H]1OC(C)=O`, the TEAD-luciferase reporter activity was active: 17.9 (compound concentration: 200 nM), inactive: -2.53 (compound concentration: 2 uM) and active: 7.05 (compound concentration: 10 uM).
The matching figures for `CC[C@@H](c1cccc(O)c1)[C@@H](C)CN(C)C` [Tapentadol]: inactive: -0.269, inactive: -1.5 and inactive: 0.342.
The matching figures for `O=C(O)c1ccc2[nH]cc(CCCCN3CC=C(c4ccccc4)CC3)c2c1` [Carmoxirole hydrochloride]: inactive: -2.5, inactive: 0.464 and inactive: 0.863.
As to `COc1ncnc(Cn2cc(C(=O)NCCO)c3ncc(C)cc32)c1C`, the TEAD-luciferase reporter activity is inactive: -0.66 (compound concentration: 200 nM) and inactive: -0.107 (compound concentration: 10 uM).
Turning to `Cc1cccc(C(C)c2c[nH]cn2)c1C` (centres undefined) [dexmedetomidine (buccal), Orion], the TEAD-luciferase reporter activity by setting is: (compound concentration: 200 nM) inactive: -1.51; (compound concentration: 10 uM) inactive: 1.61.
In the case of `Cc1cccc(C(C)c2c[nH]cn2)c1C` (centres undefined) [dexmedetomidine (buccal)], the TEAD-luciferase reporter activity (compound concentration: 2 uM) is inactive: 3.09.
For the molecule `O=[N+]([O-])OCCCCO`, the TEAD-luciferase reporter activity is inactive: -0.515 (compound concentration: 200 nM), inactive: 0.274 (compound concentration: 2 uM) and inactive: 3.62 (compound concentration: 10 uM).
The matching figures for `O=C(CCCN1CCC(n2c(=O)[nH]c3ccccc32)CC1)c1ccc(F)cc1` [Benperidol]: inactive: 0.0715, inactive: -2.43 and inactive: -1.5.
As for `O=C1[O][Pt]2([OH])([OH])([NH][C@@H]3CCCC[C@H]3[NH]2)[O]C1=O`, the TEAD-luciferase reporter activity by setting is: (compound concentration: 200 nM) inactive: -1.4; (compound concentration: 2 uM) inactive: -0.0293; (compound concentration: 10 uM) inactive: 1.16.
For `N#Cc1ccc(S[C@@H]2SC[C@@H](O)[C@H](O)[C@H]2O)cc1`, in that order: inactive: -0.112, inactive: -0.315 and inactive: 1.53.
The matching figures for `C#C[C@]1(O)CCC2C3CCC4=C[C@@H](O)CC[C@]4(C)C3CC[C@@]21C` (some centres undefined): inactive: 0.191, inactive: -0.58 and inactive: 1.42.
The matching figures for `CN[C@H]1C[C@@H](N)[C@H](O)[C@@H](O[C@@H]2O[C@H](CO)[C@H](O)[C@@H]3OC4(O[C@H]23)O[C@H]([C@@H](N)CO)[C@H](O)[C@H](O)[C@H]4O)[C@@H]1O` (some centres undefined) [Hygromycin B]: inactive: 0.112, inactive: -0.625 and inactive: -0.423.
Turning to `CNC1C2C=CCC1c1ccccc1C2` (centres undefined), the TEAD-luciferase reporter activity reads like this: (compound concentration: 200 nM) inactive: -1.17; (compound concentration: 2 uM) inactive: -1.83; (compound concentration: 10 uM) inactive: -0.942.
For `CCCCCCN1CC=C(c2ccc(Cl)cc2)CC1`, in that order: inactive: -0.326, inactive: -0.594 and inactive: 2.46.
Take `CN1CC[C@]23c4c5ccc(O)c4O[C@H]2C(=O)CC[C@H]3[C@H]1C5` [Hydromorphone hydrochloride]: the TEAD-luciferase reporter activity (compound concentration: 200 nM) was inactive: 2 and the TEAD-luciferase reporter activity (compound concentration: 10 uM) was inactive: 0.489.
Turning to `O=C(C1CCCN1C(=O)c1ccc(C(F)(F)F)cc1)N1CCC(N2CCOC2=O)CC1` (centres undefined), the TEAD-luciferase reporter activity is inactive: 1.99 (compound concentration: 200 nM) and inactive: 0.541 (compound concentration: 10 uM).
For `C[C@]12CCC(=O)C=C1C=C[C@@H]1[C@@H]2CC[C@@]2(C)[C@H]1CC[C@@]2(O)CCC(=O)O` [Canrenoate potassium], in that order: inactive: 0.466 and inactive: 1.4.
Take `Oc1ccc2c(c1)CC[N+]1=C2CCC2CCCC21` (centres undefined): the TEAD-luciferase reporter activity (compound concentration: 200 nM) is inactive: -1.37, the TEAD-luciferase reporter activity (compound concentration: 2 uM) is inactive: -1.56 and the TEAD-luciferase reporter activity (compound concentration: 10 uM) was inactive: 2.62.
The matching figures for `CC12CCC(=O)C=C1CC[C@@H]1[C@@H]2CCC2(C)[C@@H](OC(=O)CCC3CCCC3)CC[C@@H]12` (some centres undefined) [Testosterone cypionate]: inactive: -0.421, inactive: -0.378 and inactive: 1.28.
For `CCCCCCCCCCCC(=O)[O][Sn]([CH2]CCC)([CH2]CCC)[O]C(=O)CCCCCCCCCCC` [Dibutyltin Dilaurate], in that order: inactive: -0.561, inactive: 0.0962 and inactive: 3.98.
`CCNC(=O)[C@@H](CC(C)C)NC(=O)[C@H](CCCNC(=N)N)N(C)C(=O)[C@H](CCCNC(=N)N)NC(=O)[C@H](CC(C)C)NC(=O)[C@H](Cc1ccccc1)NC(=O)CNC(=O)CNC(=O)[C@H](Cc1ccc(O)cc1)NC`: the TEAD-luciferase reporter activity runs as follows: (compound concentration: 200 nM) inactive: -0.729; (compound concentration: 2 uM) inactive: -0.475; (compound concentration: 10 uM) inactive: 1.65.
The matching figures for `CCN(CCCC(=O)C1CCCCC1)[C@@H](C)Cc1ccc(OC)cc1`: inactive: 2.3, inactive: 1.09 and inactive: 1.01.
The matching figures for `CN1CC[C@@]2(C)c3cc(OC(=O)N4CCc5ccccc5C4)ccc3N(C)[C@@H]12`: inactive: -2.24, inactive: 0.21 and inactive: 0.153.
For `O=C(N[C@H]1CN2CCC1CC2)c1cnc2ccsc2c1O` [Pumosetrag hydrochloride], in that order: inactive: -0.693, inactive: -0.661 and inactive: -0.933.
Turning to `C[C@@H]1C[C@H]2[C@@H]3C[C@H](F)C4=CC(=O)C=C[C@]4(C)[C@@]3(F)[C@@H](O)C[C@]2(C)[C@@]1(OC(=O)C1C(C)(C)C1(C)C)C(=O)OCC#N`, the TEAD-luciferase reporter activity is, setting by setting: (compound concentration: 200 nM) inactive: 1.5; (compound concentration: 2 uM) inactive: 1.2; (compound concentration: 10 uM) inactive: 0.475.
For the molecule `CCC(N)Cc1cc(OC)c(C)cc1OC` (centres undefined) [Dimoxamine], the TEAD-luciferase reporter activity was inactive: -0.0709 (compound concentration: 200 nM), inactive: -0.486 (compound concentration: 2 uM) and inactive: -1.28 (compound concentration: 10 uM).
The matching figures for `CS(=O)CCNC(=O)N(CCCl)N=O` (centres undefined) [Perrimustine]: inactive: -1.2, inactive: -0.0512 and inactive: 1.49.

(Values after the supplement of paper PMC10735217.)
